Some of the results follow. Single values are uncertain, as repeats are few or missing.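 Cells were imaged in 1,536-well plates, and nuclei stained with an antibody against cleaved PARP were counted against all DNA-stained nuclei to give the apoptosis fraction. Screening doses were chosen to leave most cells alive, and resting and induced cleaved-PARP levels differ strongly between cell lines.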
What follows are molecules tested on RVH-421 (assay: cleaved PARP positive nuclei fraction relative to DMSO control; melanoma cells; higher = more apoptosis). Conditions: library dose: low library concentration; 72 h.

Row | SMILES | cleaved PARP positive nuclei fraction
1 | C[C@@H](N)c1ccc(C(=O)Nc2ccnc3[nH]ccc23)cc1 + Cc1cc([N+](=O)[O-])ccc1NS(=O)(=O)c1cc(Cl)ccc1Cl [FH535] (first compound 0.4 µM, partner dose 1 µM) | 234%
2 | CS(=O)(=O)c1ccc(C(=O)Nc2ccc(Cl)c(-c3ccccn3)c2)c(Cl)c1 [vismodegib] + O=S(=O)(c1ccccc1)N(CC(F)(F)F)c1ccc(C(O)(C(F)(F)F)C(F)(F)F)cc1 [T0901317] (first compound 1 µM, partner dose 1.4 µM) | 106%
3 | CCN(CC)CCNC(=O)c1c(C)[nH]c(/C=C2\C(=O)Nc3ccc(F)cc32)c1C [sunitinib] + COc1cc(N2CCC(N3CCN(C)CC3)CC2)ccc1Nc1ncc(Cl)c(Nc2ccccc2S(=O)(=O)C(C)C)n1 [NVP-TAE684] (first compound 0.4 µM, partner dose 0.08 µM) | 48.3%
4 | CC1(C)CCC(c2ccc(Cl)cc2)=C(CN2CCN(c3ccc(C(=O)NS(=O)(=O)c4ccc(N[C@H](CCN5CCOCC5)CSc5ccccc5)c(S(=O)(=O)C(F)(F)F)c4)cc3)CC2)C1 + CC(C)CCN1c2nc(Nc3cc(F)c(O)c(F)c3)ncc2N(C)C(=O)C1C [BID1870] (first compound 0.4 µM, partner dose 0.2 µM) | 57.5%
5 | C[C@@H](N)c1ccc(C(=O)Nc2ccnc3[nH]ccc23)cc1 + CN(NC(=O)CC(=O)NN(C)C(=S)c1ccccc1)C(=S)c1ccccc1 [STA4783] (first compound 0.4 µM, partner dose 0.006 µM) | 59%
6 | NC1(c2ccc(-c3nc4ccn5c(=O)[nH]nc5c4cc3-c3ccccc3)cc2)CCC1 + COc1cc(N2CCC(N3CCN(C)CC3)CC2)ccc1Nc1ncc(Cl)c(Nc2ccccc2S(=O)(=O)C(C)C)n1 [NVP-TAE684] (first compound 0.4 µM, partner dose 0.08 µM) | 59.2%
7 | NC(=O)c1ccc(N(C(N)=O)c2c(F)cccc2F)nc1-c1ccc(F)cc1F + CCCCCCCCCCCC1=C(O)C(=O)C=C(O)C1=O [Embelin] (first compound 0.4 µM, partner dose 1.2 µM) | 57.3%
8 | CS(=O)(=O)c1ccc(C(=O)Nc2ccc(Cl)c(-c3ccccn3)c2)c(Cl)c1 [vismodegib] + NCC(=O)Nc1ccc(-n2nc(C(F)(F)F)cc2-c2ccc3c(ccc4ccccc43)c2)cc1 [OSU03012] (first compound 1 µM, partner dose 1 µM) | 222%
9 | NC1(c2ccc(-c3nc4ccn5c(=O)[nH]nc5c4cc3-c3ccccc3)cc2)CCC1 + O=S(=O)(c1ccccc1)N(CC(F)(F)F)c1ccc(C(O)(C(F)(F)F)C(F)(F)F)cc1 [T0901317] (first compound 0.4 µM, partner dose 1.4 µM) | 127%
10 | NC(=O)c1ccc(N(C(N)=O)c2c(F)cccc2F)nc1-c1ccc(F)cc1F + CC(C)(C)c1cnc(CSc2cnc(NC(=O)C3CCNCC3)s2)o1 [SNS-032] (first compound 0.4 µM, partner dose 0.01 µM) | 52.1%
11 | NC(=O)c1ccc(N(C(N)=O)c2c(F)cccc2F)nc1-c1ccc(F)cc1F + CO[C@@H]1[C@H](N(C)C(=O)c2ccccc2)C[C@H]2O[C@]1(C)n1c3ccccc3c3c4c(c5c6ccccc6n2c5c31)C(=O)NC4 [Midostaurin] (first compound 0.4 µM, partner dose 0.08 µM) | 1130%
12 | Cn1cnc2c(F)c(Nc3ccc(Br)cc3Cl)c(C(=O)NOCCO)cc21 [selumetinib] + COc1cc2c(Oc3ccc4[nH]c(C)cc4c3F)ncnc2cc1OCCCN1CCCC1 [cediranib] (first compound 0.015 µM, partner dose 0.4 µM) | 416%
13 | C[C@]1(O)C[C@@H](c2nc(-c3ccc4ccc(-c5ccccc5)nc4c3)c3c(N)nccn32)C1 + c1cc(-c2cnn3cc(-c4ccc(OCCN5CCCCC5)cc4)cnc23)ccn1 [Dorsomorphin] (first compound 0.4 µM, partner dose 0.4 µM) | 139%
14 | CC1(C)CCC(c2ccc(Cl)cc2)=C(CN2CCN(c3ccc(C(=O)NS(=O)(=O)c4ccc(N[C@H](CCN5CCOCC5)CSc5ccccc5)c(S(=O)(=O)C(F)(F)F)c4)cc3)CC2)C1 + NCC(=O)Nc1ccc(-n2nc(C(F)(F)F)cc2-c2ccc3c(ccc4ccccc43)c2)cc1 [OSU03012] (first compound 0.4 µM, partner dose 1 µM) | 140%
15 | CN(c1ncccc1CNc1nc(Nc2ccc3c(c2)CC(=O)N3)ncc1C(F)(F)F)S(C)(=O)=O + O=C(O)c1ccc(-c2c[nH]c3ncc(-c4ccccc4)cc23)cc1C1CCCC1 [GSK650394] (first compound 0.08 µM, partner dose 0.16 µM) | 236%
16 | NC(=O)c1ccc(N(C(N)=O)c2c(F)cccc2F)nc1-c1ccc(F)cc1F + COc1ccc(-c2ccc3c(N4CCOCC4)nc(N4C[C@@H](C)O[C@@H](C)C4)nc3n2)cc1CO [KU0063794] (first compound 0.4 µM, partner dose 0.02 µM) | 83.4%
17 | NC1(c2ccc(-c3nc4ccn5c(=O)[nH]nc5c4cc3-c3ccccc3)cc2)CCC1 + CCCCCCCCCCCC1=C(O)C(=O)C=C(O)C1=O [Embelin] (first compound 0.4 µM, partner dose 1.2 µM) | 25.5%
18 | NC(=O)c1ccc(N(C(N)=O)c2c(F)cccc2F)nc1-c1ccc(F)cc1F + CC1(C)NC(=O)N(c2ccc([N+](=O)[O-])c(C(F)(F)F)c2)C1=O [nilutamide] (first compound 0.4 µM, partner dose 1 µM) | 125%
19 | COc1ccc(C2=N[C@@H](c3ccc(Cl)cc3)[C@@H](c3ccc(Cl)cc3)N2C(=O)N2CCNC(=O)C2)c(OC(C)C)c1 [Nutlin-3] + Cn1cncc1[C@@](N)(c1ccc(Cl)cc1)c1ccc2c(c1)c(-c1cccc(Cl)c1)cc(=O)n2C [tipifarnib] (first compound 0.1 µM, partner dose 0.01 µM) | 141%
20 | CN(c1ncccc1CNc1nc(Nc2ccc3c(c2)CC(=O)N3)ncc1C(F)(F)F)S(C)(=O)=O + Cc1cc([N+](=O)[O-])ccc1NS(=O)(=O)c1cc(Cl)ccc1Cl [FH535] (first compound 0.08 µM, partner dose 1 µM) | 97.8%
21 | CC(=O)O[C@@]12CO[C@@H]1C[C@H](O)[C@@]1(C)C(=O)[C@H](O)C3=C(C)[C@@H](OC(=O)[C@H](O)[C@@H](NC(=O)OC(C)(C)C)c4ccccc4)C[C@@](O)([C@@H](OC(=O)c4ccccc4)[C@H]21)C3(C)C [Docetaxel] + N#Cc1c(O)c2c(-c3ccc(-c4ccccc4O)cc3)csc2[nH]c1=O [A769662] (first compound 0.0001 µM, partner dose 2 µM) | 115%
22 | CC(=O)O[C@@]12CO[C@@H]1C[C@H](O)[C@@]1(C)C(=O)[C@H](O)C3=C(C)[C@@H](OC(=O)[C@H](O)[C@@H](NC(=O)OC(C)(C)C)c4ccccc4)C[C@@](O)([C@@H](OC(=O)c4ccccc4)[C@H]21)C3(C)C [Docetaxel] + COc1ccc2c(c1)CCC1C2CCC2(C)C(NCCCCCCN3C(=O)C=CC3=O)CCC12 [U73122] (first compound 0.0001 µM, partner dose 0.4 µM) | 225%
23 | CN(c1ncccc1CNc1nc(Nc2ccc3c(c2)CC(=O)N3)ncc1C(F)(F)F)S(C)(=O)=O + COc1cc(N2CCC(N3CCN(C)CC3)CC2)ccc1Nc1ncc(Cl)c(Nc2ccccc2S(=O)(=O)C(C)C)n1 [NVP-TAE684] (first compound 0.08 µM, partner dose 0.08 µM) | 262%
24 | NC(=O)c1ccc(N(C(N)=O)c2c(F)cccc2F)nc1-c1ccc(F)cc1F + O=C(O)c1ccc(-c2c[nH]c3ncc(-c4ccccc4)cc23)cc1C1CCCC1 [GSK650394] (first compound 0.4 µM, partner dose 0.16 µM) | 88.4%
25 | C[C@@H](N)c1ccc(C(=O)Nc2ccnc3[nH]ccc23)cc1 + Cc1cc(N2CCOCC2)cc2[nH]c(-c3c(NC[C@@H](O)c4cccc(Cl)c4)cc[nH]c3=O)nc12 [BMS536924] (first compound 0.4 µM, partner dose 0.2 µM) | 166%
26 | CC(=O)O[C@@]12CO[C@@H]1C[C@H](O)[C@@]1(C)C(=O)[C@H](O)C3=C(C)[C@@H](OC(=O)[C@H](O)[C@@H](NC(=O)OC(C)(C)C)c4ccccc4)C[C@@](O)([C@@H](OC(=O)c4ccccc4)[C@H]21)C3(C)C [Docetaxel] + COc1ccc(-c2ccc3c(N4CCOCC4)nc(N4C[C@@H](C)O[C@@H](C)C4)nc3n2)cc1CO [KU0063794] (first compound 0.0001 µM, partner dose 0.02 µM) | 214%
27 | CCCCCCCCc1ccc(CCC(N)(CO)CO)cc1 [fingolimod] + Cc1cc([N+](=O)[O-])ccc1NS(=O)(=O)c1cc(Cl)ccc1Cl [FH535] (first compound 2 µM, partner dose 1 µM) | 107%
28 | CCCCCCCCc1ccc(CCC(N)(CO)CO)cc1 [fingolimod] + Cn1cc(/C=C2\C(=O)Nc3cccnc32)c2ccccc21 [GW441756] (first compound 2 µM, partner dose 0.4 µM) | 97.2%
29 | Cn1cnc2c(F)c(Nc3ccc(Br)cc3Cl)c(C(=O)NOCCO)cc21 [selumetinib] + O=C(Nc1ccccc1)c1cc([N+](=O)[O-])ccc1Cl [GW9662] (first compound 0.015 µM, partner dose 2 µM) | 129%

Another view of part of the listing above:
Row	SMILES	cleaved PARP positive nuclei fraction
9	NC1(c2ccc(-c3nc4ccn5c(=O)[nH]nc5c4cc3-c3ccccc3)cc2)CCC1 + O=S(=O)(c1ccccc1)N(CC(F)(F)F)c1ccc(C(O)(C(F)(F)F)C(F)(F)F)cc1 [T0901317] (first compound 0.4 µM, partner dose 1.4 µM)	127%
20	CN(c1ncccc1CNc1nc(Nc2ccc3c(c2)CC(=O)N3)ncc1C(F)(F)F)S(C)(=O)=O + Cc1cc([N+](=O)[O-])ccc1NS(=O)(=O)c1cc(Cl)ccc1Cl [FH535] (first compound 0.08 µM, partner dose 1 µM)	97.8%
